PubChem BioAssay AID662 (National Center for Advancing Translational Sciences (NCATS), 2007)
Where “and” joins values, the source holds several entries; their conditions need not be identical. Equal entries are not always repeated. Some of the results follow. The main result of the screen is listed elsewhere. These columns were measured beside it and carry no call. The list favours compounds with an active or inconclusive main result. Potencies come from curve fits of mixed quality, noted in brackets.

Test: Cell signaling CRE-BLA (Fsk stim)
Details: CHO CRE-bla reporter (cAMP response element driving beta-lactamase), forskolin EC10, beta-lactamase ratio; measured here: 460 nm blue channel
Procedure, shortened: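 Forskolin analogue NKH 477 at EC10 stimulated CRE-driven beta-lactamase in CHO cells alongside compound dilution series. Beta-lactamase was measured with CCF4, excitation 405 nm, emission ratio 460/530 nm.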

| SMILES | AC50 |
| --- | --- |
| C=CCn1c(SCC(=O)c2cccs2)nc2sc(CC)cc2c1=O | 20 µM [falling, single point] |
| COc1cccc(-n2c(SCc3c(C)noc3C)nnc2-c2cccc(S(=O)(=O)N(C)C)c2)c1 | 6.31 µM [rising, single point] |
| Nc1nc(-c2ccccc2)nn1C(=O)Cc1ccccc1 | 0.00316 µM [falling, full curve, poor fit] |
| C1CCC(c2nn3c(-c4n[nH]c5c4CCC5)nnc3s2)CC1 | 10 µM [rising, partial curve] |
| O=C(c1cc(-c2ccc3c(c2)OCO3)on1)N1CCN(c2ccccc2)CC1 | 0.251 µM [falling, full curve] |
| O=C1NC(c2cccs2)Nc2sc3c(c21)CCCC3 (stereo not drawn) | 10 µM [rising, single point] |
| COc1ccc(OC)c(C(=O)c2coc3ccc(O)cc23)c1 | 0.794 µM [rising, partial curve, poor fit] |
| Cn1c(-n2c(CCCN3C(=O)c4ccccc4C3=O)nc3ccccc3c2=O)nc2ccccc21 | 10 µM [rising, partial curve] |
| CC1(C)CC(=O)C2=C(C1)N(c1cccc(O)c1)C1=C(C2)C(=O)CC(C)(C)C1 | 12.6 µM [rising, partial curve] |
| O=C(Nc1ccc2nc3n(c(=O)c2c1)CCCCC3)c1ccccn1 | 10 µM [rising, partial curve] |
| COc1cccc(-c2cncnc2NCc2ccccc2OC)c1 | 3.16 µM [rising, single point] |
| c1ccc(/N=C2\N=C(Nc3ccccn3)c3ccccc32)nc1 | 15.8 µM [rising, partial curve] |
| CCN(CC)C(=O)CSc1nnc(-c2ccccc2)n1-c1ccccc1 | 25.1 µM [rising, single point] |
| COCCn1c(=O)c(-c2ccccc2)nc2cnc(Nc3cccc(OC)c3)nc21 | 2 µM [rising, full curve] |
| COc1ccc2nc(NC(=O)c3ccc(Br)s3)sc2c1 | 25.1 µM [rising, single point] |
| CCN1C(=O)c2cccc3c(S(=O)(=O)Nc4ccccn4)ccc1c23 | 5.01 µM [rising, partial curve] |
| O=C(c1ccccc1)c1nc2ccccc2[nH]c1=O | 1.58 µM [falling, partial curve] |
| O=c1c(-c2ccccc2)nc2cncnc2n1-c1ccccc1 | 12.6 µM [rising, partial curve] |
| CCOc1cc(-c2c(C#N)c(=O)[nH]c3c2c(C)nn3-c2ccc(F)cc2)ccc1O | 3.16 µM [rising, partial curve] |
| Cc1ccc(S(=O)(=O)c2cc3c(=O)n4ccccc4nc3n(CC3CCCO3)c2=N)cc1C (stereo not drawn) | 5.01 µM [rising, partial curve] |
| COc1cc2c(cc1OC)CN(C(=O)c1cc3ccccc3oc1=O)CC2 | 12.6 µM [rising, single point] |
| CCOC(=O)CCc1c(C)n(CC)c2cc(-c3ccccc3OC)nn2c1=O | 0.00398 µM [falling, full curve, poor fit] |
| CCC(=NC(C)c1ccccc1)c1c(O)n(C)c(=O)n(C)c1=O (stereo not drawn) | 0.501 µM [rising, partial curve, poor fit] |

| SMILES | AC50 |
| --- | --- |
| O=c1c(CCc2ccccc2)nc2cnc(N3CCNCC3)nc2n1CCc1ccccc1 | 12.6 µM [rising, partial curve] |
| Nc1cc(=O)[nH]n1C1CCN(c2ccccc2)CC1 | 1 µM [rising, single point] |
| COc1ccc(C(=O)Nc2cccc(C(C)=O)c2)cc1OC | 10 µM [rising, partial curve] |
| CCOC(=O)Cc1nnc(NC(=O)c2ccccc2OCC)s1 | 12.6 µM [rising, partial curve] |
| CSc1nc(N2CCOCC2)c2c3c(sc2n1)CCCC3 | 10 µM [rising, partial curve] |
| NC(=O)SCC(=O)Nc1cccc(Cl)c1 | 25.1 µM [falling, single point] |
| Cn1c(=O)n(Cc2ccco2)c(=N)c2c3c(sc21)CCC3 | 10 µM [rising, partial curve] |
| CCCN(CC1CC1)c1nc(C)nc(Nc2c(Cl)cc(Cl)cc2Cl)c1Cl | 20 µM [rising, partial curve, poor fit] and 5.01 µM [rising, partial curve, poor fit] |
| CCN(CC)C(=O)c1sc2nc(-c3ccncc3)[nH]c(=O)c2c1C | 10 µM [rising, single point] |
| COc1ccc(NC(=O)c2cc(CN3C(=O)c4ccccc4C3=O)ccc2OC)cn1 | 12.6 µM [rising, partial curve] |
| Nc1ncnc2c1ncn2C1CCCC1 | 25.1 µM [rising, single point] |
| Cc1nonc1NC(=O)OC1CCCCC1 | 0.0794 µM [rising, single point] |
| COc1ccc(Br)cc1C1NC(=O)c2c(sc3c2CCN(C)C3)N1 (stereo not drawn) | 10 µM [rising, partial curve] |
| c1ccc(Cc2nc(-c3ccccn3)no2)cc1 | 0.00398 µM [falling, full curve, poor fit] |
| Cc1cc(-c2nnc3n2N=C(C(C)(C)C)CS3)n[nH]1 | 3.16 µM [rising, partial curve] |
| Fc1ccc(Nc2nc(Oc3ccc4c(c3)OCO4)nc(N3CCOCC3)n2)c(F)c1 | 10 µM [rising, partial curve] |
| O=C(Nc1ccc2c(c1)oc1ccc(S(=O)(=O)N3CCCC3)cc12)C1CC1 | 25.1 µM [falling, single point] |
| COCCn1c(N)c(NCc2ccccc2)c(=O)n(CC(=O)Nc2cc(C)ccc2C)c1=O | 5.01 µM [falling, single point] |
| CN1C(=S)SC(N(O)C(=O)NC2CCCCC2)C1(C)C (stereo not drawn) | 0.316 µM [rising, full curve, poor fit] |
| COc1ccc(CNC(=O)c2cc3c(=O)n4ccccc4nc3n(Cc3ccco3)c2=N)cc1 | 12.6 µM [rising, single point] |
| Cn1c(C(=O)NCCC2=CCCCC2)cc2c(=O)n3ccccc3nc21 | 0.316 µM [rising, full curve] |
| N#Cc1c2c(c(NCCN3CCOCC3)n3c1nc1ccccc13)CCCC2 | 15.8 µM [rising, partial curve] |
| Cc1ccc2c(c1)N(Cc1ccncc1)C(=O)C(C)O2 (stereo not drawn) | 12.6 µM [rising, single point] |

Quoted from the listing:
Value for `NC(=O)SCC(=O)Nc1cccc(Cl)c1` under AC50: 25.1 µM [falling, single point]
Value for `CCN(CC)C(=O)c1sc2nc(-c3ccncc3)[nH]c(=O)c2c1C` under AC50: 10 µM [rising, single point]
Value for `N#Cc1c2c(c(NCCN3CCOCC3)n3c1nc1ccccc13)CCCC2` under AC50: 15.8 µM [rising, partial curve]
Value for `O=C(Nc1ccc2c(c1)oc1ccc(S(=O)(=O)N3CCCC3)cc12)C1CC1` under AC50: 25.1 µM [falling, single point]
Value for `O=c1c(CCc2ccccc2)nc2cnc(N3CCNCC3)nc2n1CCc1ccccc1` under AC50: 12.6 µM [rising, partial curve]
Value for `COc1ccc(NC(=O)c2cc(CN3C(=O)c4ccccc4C3=O)ccc2OC)cn1` under AC50: 12.6 µM [rising, partial curve]

Carrying on.

| SMILES | AC50 |
| --- | --- |
| CCOC(=O)N1CCC(NC(=O)CCc2c(C)nc3nc(C)nn3c2C)CC1 | 0.126 µM [falling, full curve, poor fit] |
| [N-]=[N+]=CC(=O)CNC(=O)[C@@H](Cc1ccccc1)N1C(=O)c2ccccc2C1=O | 5.01 µM [rising, single point] |
| CN(C)c1ncnc2ccc(-c3cccnc3)cc12 | 3.16 µM [rising, full curve] |
| CCC/C=C(\CCC)C(NS(=O)(=O)CC12CCC(CC1=O)C2(C)C)c1ccc(C(=O)OC)cc1 (stereo not drawn) | 2.51 µM [rising, partial curve] |
| O=S(=O)(Nc1cccnc1)c1ccc(C2CCCCC2)cc1 | 15.8 µM [rising, partial curve, poor fit] |
| COc1ccc(-c2nnc3ccc(SC)nn23)cc1 | 20 µM [rising, single point] |
| O=S(=O)(NCCOCC(F)(F)C(F)F)c1ccc2oc3ccccc3c2c1 | 12.6 µM [falling, single point] |
| CCCCCCCC[N+](CCCCCCCC)(CCCCCCCC)CCCCCCCC | 10 µM [falling, partial curve] |
| CCN=C1SC(CC(=O)Nc2ccc(C)cc2)C(=O)N1CC (stereo not drawn) | 5.01 µM [falling, partial curve] |
| CC1(C)CCC[C@@]2(C)[C@@H]1CC[C@]1(C)OC(=O)C[C@@H]21 | 15.8 µM [rising, partial curve, poor fit] |
| CCOc1ccc(C(=O)N2CCN(C(=O)c3ccco3)CC2)cc1OCC | 25.1 µM [rising, single point] |
| Cn1c(=O)[nH]c(=O)c2c1nc(CN1CCN(c3cccc(Cl)c3)CC1)n2CCc1ccccc1 | 10 µM [rising, partial curve] |
| O=C1OC(=O)[C@@H]2[C@@H]1[C@@H]1CC[C@H]2O1 | 2.51 µM [rising, full curve] |
| CCN(CC)C(=O)Oc1ccc2c(=O)c(-c3ccccc3)coc2c1 | 3.98 µM [falling, partial curve] |
| CCCc1cc(=O)oc2cc(C)cc(OC(=O)c3ccco3)c12 | 0.0631 µM [falling, partial curve] |
| Cc1ccc(NC(=O)N(Cc2ccc3c(c2)OCO3)Cc2cc3cc4c(cc3[nH]c2=O)OCCO4)cc1 | 3.16 µM [rising, partial curve] |
| CC(=O)c1n[nH]nc1NC(=O)c1ccccc1 | 3.16 µM [falling, full curve] |
| CN1C(=O)N(C)C2(c3ccccc3)N(C)C(=O)NC12c1ccccc1 (stereo not drawn) | 25.1 µM [rising, single point] |
| CCOc1ccc2nc(N3CCCCCC3)sc2c1 | 7.94 µM [rising, partial curve] |
| O=C(Nc1nccs1)c1cc(N2CCOCC2)nc2ccccc12 | 3.98 µM [falling, partial curve] |
| COC(=O)[C@H](C)NC(=O)Nc1ccccc1C(F)(F)F | 7.94 µM [falling, partial curve, poor fit] |
| COc1ncc2nc(CCc3ccccc3)c(=O)n(C3CC3)c2n1 | 25.1 µM [rising, partial curve] |
